# In PubChem BioAssay AID652054 (National Center for Advancing Translational Sciences (NCATS), 2013):
# Sequences of proteins named here, by UniProt entry; tags and fusion partners are left off.
# UniProt P35462, whole entry, looked up: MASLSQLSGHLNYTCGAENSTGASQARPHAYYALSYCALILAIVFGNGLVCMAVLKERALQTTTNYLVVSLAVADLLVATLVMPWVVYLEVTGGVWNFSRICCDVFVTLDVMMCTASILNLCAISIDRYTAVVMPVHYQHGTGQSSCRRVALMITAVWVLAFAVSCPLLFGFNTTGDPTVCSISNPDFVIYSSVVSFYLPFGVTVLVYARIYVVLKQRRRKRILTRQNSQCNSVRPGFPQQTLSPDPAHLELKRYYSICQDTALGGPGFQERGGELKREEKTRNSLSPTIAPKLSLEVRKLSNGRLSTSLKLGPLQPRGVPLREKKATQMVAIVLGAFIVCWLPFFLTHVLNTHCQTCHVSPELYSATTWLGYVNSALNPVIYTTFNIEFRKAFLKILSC
# The whole screen tested about 360,000 compounds, of which about 9,100 (2.5%) were called active. Inconclusive means that the source gave no clear call. Such entries were picked first, then a sample of the others. Cut-off read from the data, not from the text of the source: active = max response below about -50%; inconclusive = no clear call, values can overlap the other calls; inactive = above that.
# Biological target: D(3) dopamine receptor (Homo sapiens) (UniProt P35462)
# Test: qHTS of D3 Dopamine Receptor Antagonist: qHTS
# Details: D3R cells, DiscoveRx beta-arrestin luminescence, antagonist mode; hits give low values
# In short: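 Cells plated overnight at 1500 cells/well, then exposed to library compounds with dopamine controls for 90 minutes at 37 degrees C. DiscoveRx reagent added for 30–60 minutes at room temperature; luminescence read, quantitative HTS format.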
# % is set by controls: 0 for no effect and ±100 for the full control effect.
row,SMILES,"max response, negative = inhibition"
1,OCCC1CN(Cc2ccc(F)cc2Cl)CCN1CCc1ccccc1 (centres undefined),active: -99.1%
2,O=c1c(Cl)c(Cl)cnn1Cc1ccccc1Cl,inconclusive: -35.4%
3,Cc1c(Cl)cccc1NC(=S)NCC1COc2ccccc2O1 (centres undefined),inactive: -11.2%
4,C[C@@H]1CN([C@H](C)CO)C(=O)c2cc(/C=C/c3ccccc3)cnc2O[C@H]1CN(C)C(=O)NC1CCCCC1,inactive: -3.21%
5,O=C(NCCCN1CCOCC1)c1cc2c(s1)-c1ccccc1OC2,inconclusive: -30.8%
6,CCN(CC)c1ccc(C(=O)N2CCN(Cc3ccccc3)CC2)cc1,inconclusive: -36.6%
7,CCc1nc2ccc(C(=O)NCc3ccccc3OC)cn2c1N(C=O)CCC(C)C,inactive: 1.01%
8,COc1ccc(/C=N/N(C)C2=NS(=O)(=O)c3ccccc32)cc1,inconclusive: -43.9%
9,CN(C)C=NCCn1c(N2CCOCC2)nc2c1c(=O)n(C)c(=O)n2C,inconclusive: -37.2%
10,COc1ccc(C(CNC(=O)c2cc3c(s2)CCCC3)N2CCOCC2)cc1 (centres undefined),active: -51.3%
11,COc1ccc(CCNC(=O)CSc2nc(N)c(C#N)c(-c3cccs3)c2C#N)cc1OC,inconclusive: -42.1%
12,COc1cc(/C=C2\CCC/C(=C\c3ccc(O)c(OC)c3)C2=O)ccc1O,inactive: 13.5%
13,COc1ccc2[nH]c3c(c2c1)CC(C)NC3=O (centres undefined),inactive: -3.19%
14,COc1ccc(C2=NS(=O)(=O)N(C)C(C(=O)NCc3ccccc3)=C2)cc1OC,inconclusive: -39.6%
15,CC(C(=O)NCC1CCCCC1)N1CCc2ccccc2C1 (centres undefined),active: -77.5%
16,CCCc1nnc(NC(=O)Cn2c(=O)oc3ccccc32)s1,inactive: 9.11%
17,O=C(NC(c1ccc(Cl)cc1)c1ccsc1)C1CCN(CCOc2ccc(Cl)cc2)CC1 (centres undefined),active: -84.3%
18,CCN(c1ccccc1)S(=O)(=O)c1cccc(C(=O)NCC(c2ccco2)N2CCCC2)c1 (centres undefined),active: -57.8%
19,CCOc1ccc(-c2nc(N)ncc2Oc2ccccc2Br)c(O)c1,inactive: 0%
20,COc1ccccc1OCCCCNC(C)(C)C,inconclusive: -37.4%
21,CN(C)C(CNC(=O)c1cccc(S(=O)(=O)Nc2ccccc2Cl)c1)c1ccco1 (centres undefined),inconclusive: -44.9%
22,O=C1CC(N2CCN(C/C=C/c3ccccc3)CC2)C(=O)N1CCc1ccccc1 (centres undefined),inconclusive: -36.5%
23,CCC1=C(OC(=O)N(CC)CC)N2C(=O)OC(=NCCc3c[nH]c4ccccc34)[C@]2(Cc2ccccc2)[C@H]2C1=CC[C@H]1C(=O)NC(=O)[C@H]12,inconclusive: -49.2%
24,Cc1cc([N+](=O)[O-])c2ccccc2c1NS(=O)(=O)c1ccccc1,inconclusive: -38.3%

# Single values from above:
# Value of `COc1ccc(C(CNC(=O)c2cc3c(s2)CCCC3)N2CCOCC2)cc1` (centres undefined) under max response, negative = inhibition: active: -51.3%
# Value of `O=C(NCCCN1CCOCC1)c1cc2c(s1)-c1ccccc1OC2` under max response, negative = inhibition: inconclusive: -30.8%
